Experimental data: PubChem BioAssay AID1259405 (NCATS, 2018)
Aim: 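Knock-downs that lift recombinant protein yield in hamster ovary cells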 (primary screen). Cell system: Chinese hamster CHO-K1 ovary cells with stable secreted eGFP expression. Reagent: single siRNA against mouse genes, 0.8 pmol siRNA per well (2 µl of 400 nM stock). Time to read-out: 3 days. Measurement: 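Per-well intracellular GFP measured by laser scanning cytometry, plus viability from ATP luminescence, each relative to plate median of non-targeting control wells, in %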. Scale: GFP, % of control: higher = more GFP per well, higher productivity; viability (ATP), % of control: higher = more viable cells (more ATP). Active means: 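Called active when intracellular GFP, relative to negative control, is at or above 120%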.
Shown is a random part of about 50,000 reagents. Of all reagents, about 4,000 (8%) got an active call. 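Mouse siRNA library applied to hamster cells; one well for each siRNA.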 Unmarked entries are inactive. The numbers tell different reagents against one gene apart. No sequences are given here.

target	reagent	GFP, % of control	viability (ATP), % of control
Ctdsp2	1	47.7	39.1
Ctdsp2	2	90.5	69.9
Ctdsp2	3	55.9	79.8
Mmp8	1	130 (active)	136
Mmp8	2	80	65.3
Cldn14	1	72.6	78.2
Cldn14	2	53.7	65.4
Cldn14	3	103	115
Gm11961	1	90.5	62.8
Gm11961	2	137 (active)	54.2
Gm11961	3	112	80.5
Or8c15	1	78.3	85.4
Or8c15	2	88.6	86.1
Or8c15	3	100	88.3
Sprr1a	1	126 (active)	85.8
Sprr1a	2	53.5	63
Gosr2	1	25.8	49.1
Gosr2	2	66.5	66.3
Gosr2	3	99.3	77.4
Rorc	1	36.3	26.6
Rorc	2	75.9	78.2
Rorc	3	41.9	43
Gtf2a1l	1	82.7	84.6
Gtf2a1l	2	68.8	81.1
Hook3	1	80.8	91
Hook3	2	80.9	63.7
Hook3	3	83.1	66.5
Alad	1	97.7	112
Alad	2	64	73
Lmbr1l	1	65.4	69.2
Lmbr1l	2	70.4	64.1
Lmbr1l	3	75.3	68.1
Cdh3	1	79.5	86
Cdh3	2	70	51.7
Cdh3	3	120 (active)	86.5

Only “viability (ATP), % of control” (3 entries from above):
Lmbr1l #3 = 68.1
Cdh3 #1 = 86
Cdh3 #2 = 51.7
